# Measurements published in paper PMC5908793.
# By UniProt entry, the sequences of proteins in these tests, tags left out. Where a name states a change or a piece, a line headed by the entry shows the natural chain unless it says otherwise.
# UniProt P63330: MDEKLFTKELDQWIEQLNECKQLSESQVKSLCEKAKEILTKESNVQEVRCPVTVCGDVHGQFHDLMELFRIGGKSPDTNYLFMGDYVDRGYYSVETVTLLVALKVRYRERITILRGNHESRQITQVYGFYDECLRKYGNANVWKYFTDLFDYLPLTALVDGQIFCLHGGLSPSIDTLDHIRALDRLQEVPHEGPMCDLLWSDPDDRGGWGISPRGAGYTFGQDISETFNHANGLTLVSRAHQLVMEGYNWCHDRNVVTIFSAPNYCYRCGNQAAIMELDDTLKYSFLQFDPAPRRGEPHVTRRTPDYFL
# UniProt Q02248: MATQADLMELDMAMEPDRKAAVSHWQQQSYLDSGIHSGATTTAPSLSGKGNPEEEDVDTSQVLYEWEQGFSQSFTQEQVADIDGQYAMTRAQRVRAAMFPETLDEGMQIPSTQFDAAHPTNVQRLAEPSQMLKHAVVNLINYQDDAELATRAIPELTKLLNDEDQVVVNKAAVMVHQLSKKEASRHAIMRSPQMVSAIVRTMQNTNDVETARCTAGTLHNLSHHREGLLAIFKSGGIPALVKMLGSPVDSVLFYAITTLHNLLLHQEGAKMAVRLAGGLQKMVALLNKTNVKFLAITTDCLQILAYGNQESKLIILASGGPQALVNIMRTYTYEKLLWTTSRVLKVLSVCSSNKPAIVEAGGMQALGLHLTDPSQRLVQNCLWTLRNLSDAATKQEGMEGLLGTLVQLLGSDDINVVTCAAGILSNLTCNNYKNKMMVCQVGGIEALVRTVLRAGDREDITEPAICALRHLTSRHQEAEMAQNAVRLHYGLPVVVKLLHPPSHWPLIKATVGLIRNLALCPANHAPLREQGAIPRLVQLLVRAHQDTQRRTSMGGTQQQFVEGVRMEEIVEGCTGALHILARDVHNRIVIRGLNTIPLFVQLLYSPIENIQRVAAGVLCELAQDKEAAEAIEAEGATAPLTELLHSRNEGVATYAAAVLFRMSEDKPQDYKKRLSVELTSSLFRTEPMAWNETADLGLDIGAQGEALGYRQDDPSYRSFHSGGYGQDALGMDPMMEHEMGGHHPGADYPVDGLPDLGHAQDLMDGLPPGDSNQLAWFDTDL
# Results are given in words; binding and its absence hold for the method and conditions named. In cells and extracts the contact can be indirect. Binding calls can cover weak binding; strength is not graded here.
# Target: Protein Phosphatase 2A (PP2A) (UniProt P63330)
# Assay: co-IP; mES cells, PP2A and β-Catenin, control cells without Ube2s depletion; strategy as for HA-tagged CK1
substance,measurement,value
"β-Catenin, mouse, endogenous (from UniProt Q02248 1-781)",binding,binds
